# Measured values published in patent US20130123481A1, “MODIFIED NUCLEOSIDES, NUCLEOTIDES, AND NUCLEIC ACIDS, AND USES THEREOF” (MODERNA THERAPEUTICS, priority 2011, published 2013).
# Legend:
# [1] = tested on: Salmonella tester strains (TA97a, TA98, TA100 and TA1535) and Escherichia coli strain (WP2 uvrA pKM101); experiment: Microames Reverse Mutation Screen; settings: any tester strain, with or without metabolic activation
# Protocol: The microames screen is a version of the full Ames preincubation assay. It detects both frameshift and base-pair substitution mutations using four Salmonella tester strains (TA97a, TA98, TA100 and TA1535) and one Escherichia coli strain (WP2 uvrA pKM101). Strains TA97a and TA98 detect frameshift mutations, and TA100, TA1535 and WP2 uvrA pKM101 detect base-pair substitution mutations. This scaled-down Ames test uses minimal compound, is conducted with and without metabolic activation (S9 fraction), and uses multiwell plates. This teste is a microbial assay to detect the mutagenic potential of test compounds.
# Positive control compounds were used at 4 different concentrations to ensure the assay system was sensitive to known mutagenic compounds. DMSO was used as the vehicle control.
# [2] = tested on: peripheral blood mononuclear cells (PBMC), IFN-alpha; experiment: In Vitro PBMC Studies: Percent modification - IFN-alpha expression; format: cell-based, human; settings: calculated from Tables 7 and 8
# Protocol: (§1) The supernatant was harvested and run by ELISA 22 hours after transfection to determine the protein expression.
# [3] = tested on: peripheral blood mononuclear cells (PBMC), TNF-alpha; experiment: In Vitro PBMC Studies: Percent modification - TNF-alpha expression; format: cell-based, human; settings: calculated from Tables 7 and 8
# Protocol: as §1
compound,measurement,setting,value
"O=c1[nH]cc([C@@H]2O[C@H](CO)[C@@H](O)[C@H]2O)c(=O)[nH]1 [pseudouridine, Pseudouridine]",Precipitates,[1],not observed
"C[C@]1(CO)O[C@@H](n2ccc(N)nc2=O)[C@H](O)[C@@H]1O [Compound 25, 4′-C-methyl cytidine]",G-CSF/IFN-alpha (PC ratio),[2],0.2
same,G-CSF/TNF-alpha (PC ratio),[3],2.8
Cn1cc([C@@H]2O[C@H](CO)[C@@H](O)[C@H]2O)c(=O)[nH]c1=O [N1-methylpseudouridine],Precipitates,[1],not observed
"CN(C)c1nc2c(ncn2[C@@H]2O[C@H](CO)[C@@H](O)[C@H]2O)c(=O)[nH]1 [Compound 50, N,N-dimethyl guanosine]",G-CSF/IFN-alpha (PC ratio),[2],0.5
same,G-CSF/TNF-alpha (PC ratio),[3],6.8
"Cc1cn([C@@H]2O[C@H](CO)[C@@H](O)[C@H]2O)c(=O)nc1N [5-Methylcytidine, reference compound]",Precipitates,[1],not observed
